# Data taken from the supplement of paper PMC9015667.
# Structures can show the parent of a compound that is named as a salt. ± gives the standard deviation of the averaged measurements. This is one part of the list. Most values come without repeats; read them as rough.
# What was measured:
# Test in all cases: reduction in cell viability relative to untreated/vehicle; higher = more growth inhibition
# Details in all cases: 200 nM; 72 h
# M229P = tested on: M229P (parental melanoma line)
# M229R = tested on: M229R (matched melanoma line resistant to BRAF inhibitors)
# M238P = tested on: M238P (parental melanoma line)
# M238R = tested on: M238R (matched melanoma line resistant to BRAF inhibitors)
# M249P = tested on: M249P (parental melanoma line)
# M249R = tested on: M249R (matched melanoma line resistant to BRAF inhibitors)
# UACC62P = tested on: UACC62P (parental melanoma line)
# UACC62R = tested on: UACC62R (matched melanoma line resistant to BRAF inhibitors)
SMILES,reduction in cell viability (M229P),reduction in cell viability (M229R),reduction in cell viability (M238P),reduction in cell viability (M238R),reduction in cell viability (M249P),reduction in cell viability (M249R),reduction in cell viability (UACC62P),reduction in cell viability (UACC62R)
NC[C@H]1CC[C@H](C(=O)O)CC1 [Tranexamic acid],< 0%,< 0%,< 0%,< 0%,< 0%,< 0%,< 0%,< 0%
COc1cc(-c2nn([C@H]3CC[C@H](N4CCN(C(C)=O)CC4)CC3)c3ncnc(N)c23)ccc1NC(=O)c1cc2ccccc2n1C,< 0%,< 0%,11.9%,< 0%,< 0%,< 0%,12.7%,< 0%
N#CC(=C(/N)Sc1ccccc1N)/C(C#N)=C(/N)Sc1ccccc1N,< 0%,< 0%,5.07%,< 0%,5.25%,0.76%,37.1%,< 0%
COc1cc2nc(N3CCN(C(=O)C4COc5ccccc5O4)CC3)nc(N)c2cc1OC (stereo not drawn) [Doxazosin mesylate],< 0%,7.3%,< 0%,< 0%,< 0%,< 0%,< 0%,< 0%
COC(=O)Nc1ccc(-c2nc(N3CCOCC3)c3cnn(C4CCN(Cc5cccnc5)CC4)c3n2)cc1,< 0%,< 0%,0.72%,< 0%,< 0%,0.74%,< 0%,< 0%
CCc1cncnc1N1CCN(Cc2nc3ccc(C(F)(F)F)cc3[nH]2)CC1,< 0%,< 0%,< 0%,< 0%,< 0%,< 0%,< 0%,< 0%
Cc1cc(C(C)(C)C)c(O)c(C)c1CC1=NCCN1 [Oxymetazoline],< 0%,33.7%,6.98%,< 0%,2.25%,6.11%,< 0%,< 0%
COc1ccnc2[nH]cc(C(=O)C(=O)N3CCN(C(=O)c4ccccc4)C[C@H]3C)c12,< 0%,< 0%,< 0%,< 0%,< 0%,1.24%,< 0%,< 0%
O=C(O)COCCN1CCN(C(c2ccccc2)c2ccc(Cl)cc2)CC1 (stereo not drawn) [Cetirizine hydrochloride],< 0%,< 0%,< 0%,< 0%,< 0%,< 0%,< 0%,< 0%
CCOC(=O)[C@H](CCc1ccccc1)N[C@H]1CS[C@H](c2cccs2)CN(CC(=O)O)C1=O [Temocapril hydrochloride],< 0%,< 0%,< 0%,< 0%,< 0%,< 0%,2.11%,< 0%
C=CC(=O)Nc1ccc2ncnc(Nc3ccc(OCc4cccc(F)c4)c(Cl)c3)c2c1,< 0%,< 0%,< 0%,16.1%,< 0%,< 0%,2.52%,< 0%
N=c1ccn2c(n1)O[C@H]1[C@H](O)[C@@H](CO)O[C@H]12 [Cyclocytidine HCl],< 0%,27.5%,24%,< 0%,4.22%,< 0%,< 0%,60.9%
COc1c(C)cnc(Cn2cnc3c(Cl)nc(N)nc32)c1C,50.5%,63.8%,34.5%,45.4%,28.8%,20.7%,61.9%,61.8%
CO[C@H]1C[C@@H]2CC[C@@H](C)[C@@](O)(O2)C(=O)C(=O)N2CCCC[C@H]2C(=O)O[C@H]([C@H](C)C[C@@H]2CC[C@@H](OCCO)[C@H](OC)C2)CC(=O)[C@H](C)/C=C(\C)[C@@H](O)[C@@H](OC)C(=O)[C@H](C)C[C@H](C)/C=C/C=C/C=C/1C [Everolimus],6.08 ± 4.4%,11.3 ± 3.2%,12.6 ± 2.8%,3.83 ± 3.3%,6.33 ± 2.7%,23.2 ± 2.3%,11.6 ± 4.3%,3.31 ± 4.5%
O=C1c2c(O)cccc2C([C@@H]2O[C@H](CO)[C@@H](O)[C@H](O)[C@H]2O)c2cc(CO)cc(O)c21 (stereo partly drawn) [Aloin],< 0%,< 0%,< 0%,< 0%,< 0%,< 0%,< 0%,< 0%
Cn1c2ccccc2c2c3c(c4c5ccccc5n(CCC#N)c4c21)CNC3=O,< 0%,< 0%,< 0%,< 0%,< 0%,< 0%,< 0%,< 0%
Nc1ncnc2c1nc(Cl)n2[C@@H]1O[C@H](CO)[C@@H](O)[C@H]1O,< 0%,< 0%,< 0%,< 0%,< 0%,< 0%,< 0%,< 0%
C[C@]12CC[C@@H]3c4ccc(O)cc4CC[C@H]3[C@@H]1CCC2=O [Estrone],0.11%,< 0%,< 0%,< 0%,< 0%,< 0%,7.46%,< 0%

SMILES,reduction in cell viability (M229P),reduction in cell viability (M229R),reduction in cell viability (M238P),reduction in cell viability (M238R),reduction in cell viability (M249P),reduction in cell viability (M249R),reduction in cell viability (UACC62P),reduction in cell viability (UACC62R)
Nc1ccn(C[C@@H](CO)OCP(=O)(O)O)c(=O)n1 [Cidofovir],< 0%,< 0%,< 0%,< 0%,< 0%,< 0%,< 0%,< 0%
CN(C)CCCNC(=O)c1ccc(-c2cc(O)c3ncccc3c2)cc1,< 0%,< 0%,< 0%,< 0%,< 0%,< 0%,< 0%,< 0%
Cc1cn([C@@H]2C[C@@H](O)[C@H](CO)O2)c(=O)[nH]c1=O [Telbivudine],< 0%,< 0%,< 0%,< 0%,< 0%,< 0%,13.8%,< 0%
CS(=O)(=O)N1CCN(Cc2cc3nc(-c4cccc5[nH]ncc45)nc(N4CCOCC4)c3s2)CC1,5.53%,16.3%,35.7%,36.9%,18%,4.87%,26.6%,9.13%
COc1ccc(COc2cc3oc(=O)c4cc(C(C)O)ccc4c3cc2OC)cc1 (stereo not drawn),< 0%,< 0%,< 0%,< 0%,< 0%,< 0%,6.03%,< 0%
O=S(=O)(O)c1ccc2cc(N=Nc3cc(S(=O)(=O)O)c4cccnc4c3O)ccc2c1,< 0%,< 0%,< 0%,< 0%,< 0%,< 0%,< 0%,< 0%
C[C@@H](N)c1ccc(C(=O)Nc2ccnc3[nH]ccc23)cc1,< 0%,10.7%,< 0%,< 0%,< 0%,< 0%,< 0%,< 0%
CCC(=O)N[C@H]1CC[C@H](C(=O)N(C)c2ccc(-c3nc4ccccc4o3)cc2)C1,< 0%,< 0%,< 0%,< 0%,< 0%,< 0%,< 0%,< 0%
Nc1ccn([C@@H]2O[C@H](CO)[C@@H](O)C2(F)F)c(=O)n1 [Gemcitabine hydrochloride],12.5%,30.6%,66%,31.1%,29.5%,40%,55.8%,79.7%
CC(C)c1cnn2c(NCc3ccccc3)cc(NCCCCCCN)nc12,< 0%,< 0%,< 0%,< 0%,< 0%,< 0%,7.36%,< 0%
COc1ccc2[nH]cc(CCNC(C)=O)c2c1 [Melatonin],< 0%,< 0%,< 0%,< 0%,< 0%,< 0%,< 0%,< 0%
CNS(=O)(=O)Cc1ccc2[nH]cc(CCN(C)C)c2c1 [Sumatriptan succinate],< 0%,< 0%,< 0%,< 0%,< 0%,< 0%,< 0%,< 0%
COCC[n+]1c2c(n(Cc3cnccn3)c1C)C(=O)c1ccccc1C2=O [Sepantronium bromide],92.7%,96.4%,89.4%,94.8%,91.9%,95.2%,89.4%,100%
CO/N=C(\C(=O)N[C@@H]1C(=O)N2C(C(=O)O)=C(CSC(=O)c3ccco3)CS[C@H]12)c1csc(N)n1 [Ceftiofur],< 0%,< 0%,< 0%,< 0%,< 0%,< 0%,< 0%,< 0%
CCCCS(=N)(=O)CCC(N)C(=O)O (stereo not drawn) [Buthionine sulfoximine],< 0%,< 0%,< 0%,< 0%,< 0%,< 0%,< 0%,< 0%
Cc1ccccc1C(=O)c1ccc(Nc2ccc(Br)cc2N)cc1Cl,< 0%,< 0%,< 0%,< 0%,6.15%,< 0%,0.47%,< 0%
N#CC(=Cc1ccc(O)c(O)c1)C(=O)NCc1ccccc1 [Tyrphostin B42],< 0%,< 0%,< 0%,< 0%,< 0%,< 0%,14.2%,< 0%
COc1c(N2C[C@@H]3CCCN[C@@H]3C2)c(F)cc2c(=O)c(C(=O)O)cn(C3CC3)c12 [Moxifloxacin hydrochloride monohydrate],< 0%,< 0%,< 0%,< 0%,< 0%,< 0%,< 0%,< 0%

# 3 structures out of the list, sorted by length of the SMILES, ascending.
SMILES,reduction in cell viability (M229P),reduction in cell viability (M229R),reduction in cell viability (M238P),reduction in cell viability (M238R),reduction in cell viability (M249P),reduction in cell viability (M249R),reduction in cell viability (UACC62P),reduction in cell viability (UACC62R)
CC(C)c1cnn2c(NCc3ccccc3)cc(NCCCCCCN)nc12,< 0%,< 0%,< 0%,< 0%,< 0%,< 0%,7.36%,< 0%
Nc1ccn([C@@H]2O[C@H](CO)[C@@H](O)C2(F)F)c(=O)n1 [Gemcitabine hydrochloride],12.5%,30.6%,66%,31.1%,29.5%,40%,55.8%,79.7%
O=S(=O)(O)c1ccc2cc(N=Nc3cc(S(=O)(=O)O)c4cccnc4c3O)ccc2c1,< 0%,< 0%,< 0%,< 0%,< 0%,< 0%,< 0%,< 0%
